# Experimental data from the supplement of paper PMC3334620.
# In all, about 33,000 sequences were measured (“E-score (-0.5 to 0.5)”: median about -8e-05, highest 2% from about 0.23 on). The list shows a part of the results.
# Biological target: T1, Nrg2 (UniProt P38082)
# T1 sequence: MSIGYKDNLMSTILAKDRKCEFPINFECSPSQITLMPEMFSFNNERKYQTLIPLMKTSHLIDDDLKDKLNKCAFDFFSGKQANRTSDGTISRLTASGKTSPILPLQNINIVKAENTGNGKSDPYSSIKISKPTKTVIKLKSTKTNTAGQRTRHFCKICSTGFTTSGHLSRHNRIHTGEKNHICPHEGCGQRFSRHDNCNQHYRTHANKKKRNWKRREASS
# Assay: PBM E-score (8-mer binding enrichment) (E-score (-0.5 to 0.5)); higher = stronger / more preferred TF binding
# Conditions: protein concentration: 100 nM; construct: GST-full length
# Procedure: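 Universal 'all 10-mer' protein binding microarrays (Agilent AMADID 015681) probed with GST-tagged S. cerevisiae TFs (full-length or DBD) made by in vitro transcription/translation (PURExpress), about 100-200 nM. Bound TF was detected with fluorescent anti-GST. Each ungapped 8-mer (which stands for itself and its reverse complement) is scored by the PBM enrichment score (E-score), a modified Wilcoxon-Mann-Whitney statistic from -0.5 to +0.5, computed with the Universal PBM Analysis Suite. Scale: above 0.35 generally sequence-specific binding.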
row,Sequence,PBM E-score
1,AGCATTCA,-0.0323
2,ATCCATAA,0.177
3,ACGGTAAT,-0.0837
4,AGTGATTC,0.0833
5,ACATCAGA,0.0456
6,GCGTAAGA,-0.141
7,AGCCTGTA,-0.126
8,AGACGTGC,0.0659
9,AACGGAGG,-0.0849
10,AATAGGCG,0.175
11,GACTACCC,-0.061
12,AAAATCCA,0.112
13,CGCCTACC,-0.0625
14,AACTCTGT,0.086
15,ACCATCAC,-0.0188
16,GCGAACTA,0.149
17,AGCATTGC,-0.00194
18,CGACCGGC,0.034
19,ACGTTTCA,-0.0233
20,CGGCAAAG,0.0628
21,GGGTACAA,0.206
22,GGTATCCA,-0.00467
23,AAACATCT,-0.114
24,AGTAATCG,0.115
25,ACATCCTG,0.105

# Shown tab-delimited: part of the list above
row	Sequence	PBM E-score
5	ACATCAGA	0.0456
24	AGTAATCG	0.115

# Following part

row,Sequence,PBM E-score
1,GTTGGTCA,0.229
2,AACTAGCA,0.127
3,AGATCTGC,0.0227
4,AGACTGCT,-0.125
5,GCGTTCCC,-0.043
6,GTCCTACA,0.151
7,AGCATAAG,0.127
8,GGACGTTA,-0.00032
9,ACTTGATC,0.118
10,ATCACATC,0.0387
11,AATCTGTA,0.0668
12,CTCAGATA,0.11
13,AACTTCGA,0.0954
14,CAGGCGCA,-0.114
15,AAGTATGT,0.118
16,CTTATTGC,-0.0715
17,AATAACAT,0.146
18,AGAACGTG,0.149
19,CGGTGGGC,-0.184
20,CAACCTTG,0.0858
21,TTGCGCAA,0.187
22,TAGGCGGA,0.0991
23,AGCAGTGC,-0.287
24,ACATCGAC,-0.0585
25,TAGGGTCA,0.218

row,Sequence,PBM E-score
1,AATTTACT,0.118
2,AGACCGCC,0.0873
3,ATCACCAA,0.148
4,CCCGGACG,-0.253
5,ATCCCACC,0.0587
6,CCCAGAGG,-0.233
7,CGCATTTA,0.0478
8,ATCCGAAG,-0.0314
9,TTCCGCAA,0.114
10,AGGCGCAA,0.13
11,ATATCCCG,0.111
12,CATAGTAC,-0.0256
13,GGTTCCGA,0.0687
14,GAACCCTC,-0.149
15,CAGTTTCA,0.0515
16,CGTCTATC,-0.167
17,CGAACTAG,0.0773
18,CTTGTAGA,-0.258
19,GTACCCAC,-0.153
20,GTAACATA,0.0856
21,CCACTATC,0.0741
22,GTTTGCTA,0.0143
23,GAACTTAA,-0.0517
24,AGGCACGC,-0.109
25,TTAACGAA,0.14

row,Sequence,PBM E-score
1,ATGAGAGC,0.00785
2,GTATGACA,-0.0684
3,ATCATTGA,0.0568
4,CTTCCGCC,-0.106
5,TACGTCAA,-0.13
6,CCTGAGCG,-0.0529
7,AACTAATG,0.194
8,AACCCAGA,0.0315
9,ATTCCTTA,0.0604
10,ACCATTAA,0.126
11,GCAGTGAA,0.211
12,AACGGTGT,-0.0219
13,CACACATA,-0.033
14,CAGTACTC,-0.171
15,CCGTGACC,-0.211
16,CTGTGCAA,0.0249
17,CCCTAGTC,-0.159
18,AGGCTCTC,-0.305
19,CTGACGCA,-0.0803
20,GAAGGCTC,-0.256
21,CCACCGTA,-0.057
22,TCTTCGAA,-0.00064
23,CTAAGAAC,0.137
24,ATAAGAAC,0.36
25,CACATGAA,0.0326

row,Sequence,PBM E-score
1,ACGAGTAG,0.00198
2,CAGCACGG,-0.0747
3,ATCAGCGG,0.115
4,AACTTATA,0.145
5,CTTCGACC,0.0651
6,AATTTGCC,-0.00595
7,ATACCAAT,0.0716
8,CAATGCCG,0.106
9,GATTAGCC,0.0964
10,AAATACGG,0.0268
11,TATTCTCA,0.0618
12,CGGCATAA,0.0678
13,GACTATGA,0.00129
14,CACAGAAA,0.148
15,CCCAAGTC,-0.124
16,CCTCTCAC,-0.0732
17,GAAACGCA,0.082
18,TTAACCAA,0.125
19,CTGCCTCC,-0.0611
20,CTCAGGGC,0.157
21,AAGCCGGG,0.0638
22,TCCCTACA,-0.0231
23,AAAGGGGC,0.0155
24,GAATACCA,0.214
25,GTAGGAAC,0.00902

row,Sequence,PBM E-score
1,CGTTGTGA,0.0983
2,CTTCCGCA,-0.0254
3,CTATGGAA,-0.0833
4,CGAGTGGC,-0.0784
5,ACATATCA,0.155
6,CTGGAAAG,0.115
7,CAAACATG,-0.00659
8,ACCTTGGC,-0.0628
9,TGCGTCCA,-0.0526
10,AGTTCGTA,-0.00472
11,AGCCAAAA,0.024
12,ACGTCGTC,-0.0295
13,CACAATAC,0.173
14,CTTGGTTC,0.0919
15,CCCGGTAC,-0.206
16,ATGCATAA,-0.0579
17,CCTGCACA,-0.00424
18,CTTGGTGC,-0.181
19,GAATCCTA,-0.0102
20,ATGCATCC,-0.0344
21,AGTCTCGC,-0.0578
22,CTAGGGCA,-0.255
23,TAGGTGAA,0.161
24,CTCCCCAG,-0.157
25,ATGTGTTA,0.0963

row,Sequence,PBM E-score
1,TCTCTTCA,0.057
2,AAAGCCTA,-0.115
3,CGCGTAAA,0.0872
4,GCGACCAA,0.248
5,AACGGCAA,0.156
6,CATTCATA,0.189
7,ACCCTAAG,0.194
8,CTCCTCAC,-0.298
9,GTAGTCCA,-0.254
10,TACCGTAA,-0.0973
11,GCGCGGCA,0.0521
12,AGGGCACG,-0.0801
13,AAAGGGTC,0.318
14,GCTATCGA,0.0244
15,TCAACACA,0.235
16,AGTCCAAT,0.0649
17,CTCAATAA,-0.103
18,CCTCGTGC,-0.0093
19,ACTCATAG,-0.0243
20,GCTTAGCA,-0.104
21,CAAGCGAC,0.0446
22,CCTCGGAA,0.0214

# Quoted from the listing.
# For PBM E-score, TCAACACA reads 0.235
# For PBM E-score, AGGGCACG reads -0.0801
# For PBM E-score, TCTCTTCA reads 0.057
# For PBM E-score, CTCCTCAC reads -0.298
